Differences between knockout arms are mostly noise.
Tested on: SKBR3
Test: relative cell number vs DMSO control (72 h) (% of DMSO); higher = less growth inhibition (more cells)
Method: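 QMAP-Seq: a pool of 5 breast cancer cell lines (ZR-75-1, SKBR3, HCC-38, MDA-MB-231, BT-20), each carrying 12 doxycycline-inducible Cas9 sgRNA perturbations (11 knockouts plus non-targeting sgNT), was treated with compounds for 72 h at four 10-fold doses (10 nM-10 uM or 1 nM-1 uM range). Barcodes were amplified and sequenced, and cell number was interpolated from 293T spike-in standard curves. The result is expressed as % of the median of DMSO wells. Two biological replicates.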

CC(C)CC(=O)Nc1n[nH]c2c1CN(C(=O)C1CCN(C)CC1)C2(C)C
Settings | relative cell number
sgRNA knockout: sgATF3, 10 nM | 119
sgRNA knockout: sgATF3, 100 nM | 59
sgRNA knockout: sgATF3, 1000 nM | 39.4
sgRNA knockout: sgATF3, 10000 nM | 7.26
sgRNA knockout: sgATF4, 10 nM | 84.5
sgRNA knockout: sgATF4, 100 nM | 67.7
sgRNA knockout: sgATF4, 1000 nM | 38.2
sgRNA knockout: sgATF4, 10000 nM | 11.7
sgRNA knockout: sgATF6, 10 nM | 105
sgRNA knockout: sgATF6, 100 nM | 81.6
sgRNA knockout: sgATF6, 1000 nM | 29.6
sgRNA knockout: sgATF6, 10000 nM | 7.12
sgRNA knockout: sgATG7, 10 nM | 104
sgRNA knockout: sgATG7, 100 nM | 71.5
sgRNA knockout: sgATG7, 1000 nM | 44.1
sgRNA knockout: sgATG7, 10000 nM | 7.03
sgRNA knockout: sgERN1, 10 nM | 85.5
sgRNA knockout: sgERN1, 100 nM | 65.2
sgRNA knockout: sgERN1, 1000 nM | 38.9
sgRNA knockout: sgERN1, 10000 nM | 7.68
sgRNA knockout: sgHSF1, 10 nM | 97.6
sgRNA knockout: sgHSF1, 100 nM | 70.5
sgRNA knockout: sgHSF1, 1000 nM | 30.3
sgRNA knockout: sgHSF1, 10000 nM | 8.32
sgRNA knockout: sgHSF2, 10 nM | 92.5
sgRNA knockout: sgHSF2, 100 nM | 62.8
sgRNA knockout: sgHSF2, 1000 nM | 32.1
sgRNA knockout: sgHSF2, 10000 nM | 7.41
sgRNA knockout: sgKEAP1, 10 nM | 97.2
sgRNA knockout: sgKEAP1, 100 nM | 64.7
sgRNA knockout: sgKEAP1, 1000 nM | 38
sgRNA knockout: sgKEAP1, 10000 nM | 11
sgRNA knockout: sgNFE2L2, 10 nM | 92.8
sgRNA knockout: sgNFE2L2, 100 nM | 76.6
sgRNA knockout: sgNFE2L2, 1000 nM | 37
sgRNA knockout: sgNFE2L2, 10000 nM | 8.44
sgRNA knockout: sgSLC35F2, 10 nM | 102
sgRNA knockout: sgSLC35F2, 100 nM | 71.9
sgRNA knockout: sgSLC35F2, 1000 nM | 38.3
sgRNA knockout: sgSLC35F2, 10000 nM | 8.23
sgRNA knockout: sgXBP1, 10 nM | 113
sgRNA knockout: sgXBP1, 100 nM | 80.5
sgRNA knockout: sgXBP1, 1000 nM | 43.7
sgRNA knockout: sgXBP1, 10000 nM | 9.48

Cc1c(Cn2c(C)nc3c(C(=O)O)cc(N4CCOCC4)cc32)cccc1C(F)(F)F
Settings | relative cell number
sgRNA knockout: sgATF3, 10 nM | 103
sgRNA knockout: sgATF3, 100 nM | 125
sgRNA knockout: sgATF3, 1000 nM | 99.6
sgRNA knockout: sgATF3, 10000 nM | 139
sgRNA knockout: sgATF4, 10 nM | 99.5
sgRNA knockout: sgATF4, 100 nM | 111.3
sgRNA knockout: sgATF4, 1000 nM | 98
sgRNA knockout: sgATF4, 10000 nM | 108
sgRNA knockout: sgATF6, 10 nM | 109
sgRNA knockout: sgATF6, 100 nM | 85.4
sgRNA knockout: sgATF6, 1000 nM | 105
sgRNA knockout: sgATF6, 10000 nM | 103
sgRNA knockout: sgATG7, 10 nM | 94.6
sgRNA knockout: sgATG7, 100 nM | 113
sgRNA knockout: sgATG7, 1000 nM | 95.2
sgRNA knockout: sgATG7, 10000 nM | 93.1
sgRNA knockout: sgERN1, 10 nM | 123
sgRNA knockout: sgERN1, 100 nM | 124
sgRNA knockout: sgERN1, 1000 nM | 108
sgRNA knockout: sgERN1, 10000 nM | 102
sgRNA knockout: sgHSF1, 10 nM | 98.1
sgRNA knockout: sgHSF1, 100 nM | 103.5
sgRNA knockout: sgHSF1, 1000 nM | 95.1
sgRNA knockout: sgHSF1, 10000 nM | 101
sgRNA knockout: sgHSF2, 10 nM | 104
sgRNA knockout: sgHSF2, 100 nM | 88.9
sgRNA knockout: sgHSF2, 1000 nM | 90.9
sgRNA knockout: sgHSF2, 10000 nM | 86.9
sgRNA knockout: sgKEAP1, 10 nM | 108
sgRNA knockout: sgKEAP1, 100 nM | 89.6
sgRNA knockout: sgKEAP1, 1000 nM | 94.9
sgRNA knockout: sgKEAP1, 10000 nM | 98.3
sgRNA knockout: sgNFE2L2, 10 nM | 129
sgRNA knockout: sgNFE2L2, 100 nM | 104
sgRNA knockout: sgNFE2L2, 1000 nM | 106
sgRNA knockout: sgNFE2L2, 10000 nM | 109
sgRNA knockout: sgSLC35F2, 10 nM | 84.3
sgRNA knockout: sgSLC35F2, 100 nM | 108
sgRNA knockout: sgSLC35F2, 1000 nM | 117
sgRNA knockout: sgSLC35F2, 10000 nM | 94
sgRNA knockout: sgXBP1, 10 nM | 106
sgRNA knockout: sgXBP1, 100 nM | 117
sgRNA knockout: sgXBP1, 1000 nM | 90.9
sgRNA knockout: sgXBP1, 10000 nM | 106

Cc1cc(N2CCOCC2)cc2[nH]c(-c3c(NC[C@@H](O)c4cccc(Cl)c4)cc[nH]c3=O)nc12
Settings | relative cell number
sgRNA knockout: sgATF3, 10 nM | 109
sgRNA knockout: sgATF3, 100 nM | 80.27
sgRNA knockout: sgATF3, 1000 nM | 89.7
sgRNA knockout: sgATF3, 10000 nM | 63.6
sgRNA knockout: sgATF4, 10 nM | 82.7
sgRNA knockout: sgATF4, 100 nM | 85
sgRNA knockout: sgATF4, 1000 nM | 104
sgRNA knockout: sgATF4, 10000 nM | 52.4
sgRNA knockout: sgATF6, 10 nM | 97.2
sgRNA knockout: sgATF6, 100 nM | 72.1
sgRNA knockout: sgATF6, 1000 nM | 94.5
sgRNA knockout: sgATF6, 10000 nM | 44.9
sgRNA knockout: sgATG7, 10 nM | 87.9
sgRNA knockout: sgATG7, 100 nM | 87.4
sgRNA knockout: sgATG7, 1000 nM | 83.25
sgRNA knockout: sgATG7, 10000 nM | 57.7
sgRNA knockout: sgERN1, 10 nM | 104
sgRNA knockout: sgERN1, 100 nM | 103
sgRNA knockout: sgERN1, 1000 nM | 101
sgRNA knockout: sgERN1, 10000 nM | 62
sgRNA knockout: sgHSF1, 10 nM | 86.9
sgRNA knockout: sgHSF1, 100 nM | 66.4
sgRNA knockout: sgHSF1, 1000 nM | 86.7
sgRNA knockout: sgHSF1, 10000 nM | 54.2
sgRNA knockout: sgHSF2, 10 nM | 95.4
sgRNA knockout: sgHSF2, 100 nM | 71
sgRNA knockout: sgHSF2, 1000 nM | 103
sgRNA knockout: sgHSF2, 10000 nM | 56.5
sgRNA knockout: sgKEAP1, 10 nM | 72.4
sgRNA knockout: sgKEAP1, 100 nM | 71.3
sgRNA knockout: sgKEAP1, 1000 nM | 94.3
sgRNA knockout: sgKEAP1, 10000 nM | 52.3
sgRNA knockout: sgNFE2L2, 10 nM | 80.1
sgRNA knockout: sgNFE2L2, 100 nM | 76.8
sgRNA knockout: sgNFE2L2, 1000 nM | 112
sgRNA knockout: sgNFE2L2, 10000 nM | 60.4
sgRNA knockout: sgSLC35F2, 10 nM | 87
sgRNA knockout: sgSLC35F2, 100 nM | 67.5
sgRNA knockout: sgSLC35F2, 1000 nM | 66.2
sgRNA knockout: sgSLC35F2, 10000 nM | 62.8
sgRNA knockout: sgXBP1, 10 nM | 88.4
sgRNA knockout: sgXBP1, 100 nM | 69.3
sgRNA knockout: sgXBP1, 1000 nM | 101
sgRNA knockout: sgXBP1, 10000 nM | 56.4
